# Results reported in PubChem BioAssay AID504467 (National Center for Advancing Translational Sciences (NCATS), 2011).
# Hit rate of the full screen: of about 330,000 compounds, about 7,700 (2.3%) were called active. The shares of active, inactive and inconclusive entries below differ from those in the screen. Calls come from the whole dose curve; as a rule, active = well fitted inhibition curve with a large enough effect; inconclusive = small, poorly fitted or top-dose-only effect, or effect the other way; inactive = flat fitted curve, though single readings scatter. Where the call is inconclusive, the potency comes from a doubtful curve fit.
# Assay: qHTS screen for small molecules that inhibit ELG1-dependent DNA repair in human embryonic kidney (HEK293T) cells expressing luciferase-tagged ELG1; note: nearly all actives have a fitted effect of over 55% in size
# Settings: HEK293T ELG1-luciferase reporter, luminescence, 16 h, DNA damage induced by 5-fluorouridine; activity change, negative = inhibition: at 46.1 µM (top of the series)
# In short: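 Quantitative HTS, concentration-response format. 2,000 cells/well co-treated with 5-fluorouridine and compound, 16 hr in 5% CO2 at 37 °C; ONE-Glo luminescence read after 30 min.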
# % is set by controls: 0 for no effect and ±100 for the full control effect; potency is the fitted concentration of half-maximal effect.
SMILES,"activity change, negative = inhibition",Potency
COc1ccc(Nc2ccc(S(=O)(=O)N3CCCCC3)cc2[N+](=O)[O-])cc1,inactive: -14.2%,
Cc1cccc(N(C)C(=S)Oc2ccc3ccccc3c2)c1,,"inconclusive: 9.2 µM [activator, partial curve, poor fit]"
CCOC(=O)c1nnn(CC(=O)N2N=C(c3ccccc3)CC2c2ccccc2)c1C(=O)OCC (stereo not given),inactive: 7.84%,
O=C(C1=C[C@@H](c2ccccc2)C[C@@H](OCCCCO)O1)N1CCN(Cc2ccc3c(c2)OCO3)CC1,inactive: -27.5%,
CC1CCc2c(C(=O)Nc3nccs3)csc2C1 (stereo not given),,"inconclusive: 16.4 µM [activator, partial curve]"
COc1ccc(-n2nc(C(=O)NCC(=O)Nc3cccc(Cl)c3)c3ccccc3c2=O)cc1OC,,"inconclusive: 1.46 µM [inhibitor, full curve, poor fit]"
CCCOc1ccc(C(=O)OCC(=O)NCCc2ccc(OCC)c(OCC)c2)cc1OC,,"inconclusive: 3.66 µM [inhibitor, full curve, poor fit]"
COc1ccc2nc(NC(=O)CN3C(=O)NC4(CCCC4)C3=O)sc2c1,,"inconclusive: 32.6 µM [activator, partial curve, poor fit]"
CCN(CC)S(=O)(=O)c1ccc(N2CCOCC2)c(NC(=O)CCC2CCCCC2)c1,,"inconclusive: 18.4 µM [inhibitor, single point]"
COc1ccc(NC(=O)c2cc(OC)c(OC)c(OC)c2)cc1S(=O)(=O)N1CCCCC1,inactive: -14.5%,
Cc1cc(C)c(C(=O)CSC2=NC(N)=C(C#N)C3(CCCCC3)C2C(N)=O)cc1C (stereo not given),,"inconclusive: 23.1 µM [inhibitor, partial curve]"
COc1ccc(-c2cc(-c3ccc(OC)cc3)[nH]n2)cc1,,"inconclusive: 20.6 µM [activator, partial curve]"
COc1ccc(C(CC(=O)N2CCCC(C)C2)c2c(O)cc(OC)cc2OC)cc1 (stereo not given),,"inconclusive: 25.9 µM [activator, single point]"
COCCCN(C(=O)c1cc2c(s1)CCC2)c1c(N)n(Cc2ccccc2)c(=O)[nH]c1=O,inactive: -1.35%,
CC(C)(C)NC(=O)NC(=O)COC(=O)Cn1cnc2ccccc2c1=O,inconclusive: 37.8% [activator],
CCCCN(C)C(=O)CCCc1c[nH]c2ccccc12,,"inconclusive: 18.4 µM [activator, partial curve]"
COc1ccc(N2CCN(C(=O)CCCSc3nc4ccccc4[nH]3)CC2)cc1,,active: 23.1 µM
O=C(C[C@@H]1C/C=C\C[C@@H](Cc2ccc(F)cc2)C(=O)OC[C@H]2CCCN2C1=O)NCCO,,"inconclusive: 29.1 µM [activator, single point]"
O=C(NC(=S)N1CCCc2ccccc21)c1ccco1,,"inconclusive: 29.1 µM [activator, single point]"
CCOc1ccc2c(c1)C(C)=CC(C)(C)N2S(=O)(=O)c1ccc(NC(C)=O)cc1,,"inconclusive: 1.46 µM [activator, full curve, poor fit]"
COc1cc(NC2c3ccccc3C(=O)N2c2cc(C)ccn2)cc(OC)c1OC (stereo not given),,"inconclusive: 20.6 µM [activator, single point]"
CC(C)CNc1nc(Oc2ccc(=O)n(-c3ccccc3)n2)nc(N2CCOCC2)n1,,"inconclusive: 25.9 µM [inhibitor, single point]"
Cc1ccc(Nc2c(-c3ccc(N4CCOCC4)cc3)nc3cnccn23)cc1,,"inconclusive: 10.3 µM [activator, partial curve]"
COc1ccc2c(c1)C(=O)[C@@H](OC(=O)NCc1ccc3c(c1)OCO3)[C@H](c1ccc(OC)c(Br)c1)O2,,active: 18.4 µM

# A draw from above in order of heavy-atom count, largest number first.
SMILES,"activity change, negative = inhibition",Potency
COCCCN(C(=O)c1cc2c(s1)CCC2)c1c(N)n(Cc2ccccc2)c(=O)[nH]c1=O,inactive: -1.35%,
CCN(CC)S(=O)(=O)c1ccc(N2CCOCC2)c(NC(=O)CCC2CCCCC2)c1,,"inconclusive: 18.4 µM [inhibitor, single point]"
CCOc1ccc2c(c1)C(C)=CC(C)(C)N2S(=O)(=O)c1ccc(NC(C)=O)cc1,,"inconclusive: 1.46 µM [activator, full curve, poor fit]"

# Carrying on:

SMILES,"activity change, negative = inhibition",Potency
O=C(O)c1cccc(N/N=C/c2cc(Br)cc(Br)c2O)c1,,"inconclusive: 18.4 µM [activator, partial curve]"
Cc1cccnc1NC(=O)Nc1cccs1,,"inconclusive: 18.4 µM [activator, single point]"
N/C(=N\OC(=O)/C=C/c1ccccc1Cl)c1cccnc1,,"inconclusive: 16.4 µM [activator, partial curve]"
CCN1C(=O)CS/C1=N\S(=O)(=O)c1ccc(Cl)cc1,inactive: -0.59%,
COc1ccc(-c2cc(C(F)(F)F)n3nc(C(=O)N4CCCCC4)cc3n2)cc1OC,,"inconclusive: 29.1 µM [inhibitor, single point]"
COCCn1c(C)cc(/C=C2/NC(=O)N(c3cccc(Cl)c3)C2=O)c1C,,"inconclusive: 25.9 µM [activator, partial curve, poor fit]"
CCCCc1nc2cc(C(=O)N3CCC(OC)CC3)ccc2o1,,"inconclusive: 20.6 µM [activator, partial curve]"
Cc1ccc(C(=O)CSc2nnc(CNc3ccc(C)cc3C)o2)cc1,,"inconclusive: 5.8 µM [inhibitor, partial curve, poor fit]"
O=C(NCc1ccco1)c1ccc(Cn2c(=O)c3sccc3n(Cc3cccc(F)c3)c2=O)cc1,,"inconclusive: 11.6 µM [inhibitor, partial curve, poor fit]"
Cc1c(Cl)c(C(=O)NC2C3CC4CC(C3)CC2C4)nn1C (stereo not given),inactive: 2.01%,
CCOc1ccc(-c2csc(Cn3c(CN4CCN(C)CC4)nc4ccccc4c3=O)n2)cc1,,active: 20.6 µM
O=C(N/N=C1\CCCc2oc(C(=O)O)cc21)c1ccccc1,,"inconclusive: 23.1 µM [activator, single point]"
Cc1ccc(S(C)(=O)=O)cc1C(=O)Nc1cccc(S(=O)(=O)N2CCCCCC2)c1,,active: 11.6 µM
O=C(O)c1cc(-c2ccc3c(c2)OCO3)nc2ccccc12,,"inconclusive: 18.4 µM [activator, partial curve, poor fit]"
COc1ccc(CNC(=O)c2cc(=O)c3cc(C)c(C)cc3o2)cc1,inactive: -7.8%,
CCC(=O)NNC(=O)CCC(=O)Nc1cccc(Cl)c1C,inactive: 6.3%,
Cc1ccccc1-c1cc(=O)c2c(O)cccc2o1,inactive: 15.7%,
Cn1c(C(=O)NC2CCCCCC2)cc2c(=O)n(C)c3ccccc3c21,,"inconclusive: 23.1 µM [inhibitor, single point]"
CC(C)C[C@@H](C)C(=O)N(Cc1ccccc1)c1ccccc1,inactive: 14.7%,
CCCn1nc(Oc2nc(NC(C)C)nc(N(C)C)n2)ccc1=O,,"inconclusive: 29.1 µM [inhibitor, single point]"
CCCCn1nc(NC(=O)c2cccs2)c2cc3cc(OC)ccc3nc21,,"inconclusive: 20.6 µM [inhibitor, partial curve, poor fit]"
CC1CCN(C(=O)CNC(=O)c2ccc(Br)o2)CC1,,"inconclusive: 16.4 µM [activator, partial curve]"
COc1cc(Cl)c(C)cc1NC(=O)CNC(=O)Cn1cnc2ccccc2c1=O,inactive: -5.74%,
COc1ccccc1CC(=O)Nc1cccc(C(=O)Nc2nccs2)c1,,active: 16.4 µM

SMILES,"activity change, negative = inhibition",Potency
O=C(NC(=S)NCC1CCCO1)c1ccc([N+](=O)[O-])cc1 (stereo not given),inactive: 26.4%,
Cc1ccccc1Cn1cc(NC(=O)CSc2nc3c(c(C(F)(F)F)n2)CCc2ccccc2-3)cn1,,"inconclusive: 13 µM [inhibitor, partial curve, poor fit]"
O=[N+]([O-])c1ccc(CSc2ccc(S(=O)(=O)N3CCCC3)cn2)cc1,,"inconclusive: 29.1 µM [inhibitor, single point]"
CCOC(=O)c1c(CSc2ccccc2)oc2cc(Br)c(O)c(CN(C)C)c12,inactive: -12.1%,
Fc1ccccc1Nc1nc(NCc2ccco2)nc(N2CCOCC2)n1,,"inconclusive: 29.1 µM [inhibitor, single point]"
CCc1cc(=O)oc2c(C)c(OC(C)C(=O)NCCCn3ccnc3)ccc12 (stereo not given),inactive: 17.2%,
Cc1ccc(S(=O)(=O)N2CCN(S(=O)(=O)N3CCCCC3)CC2)cc1C,inactive: 13.8%,
CCOC(=O)Cc1nnc(NC(=O)CSc2nnc3c4ccccc4n(C(C)C)c3n2)s1,,"inconclusive: 16.4 µM [inhibitor, partial curve, poor fit]"
O=C(O)c1cccc(NC(=S)N/N=C/c2cccc(O)c2)c1,,"inconclusive: 3.66 µM [inhibitor, partial curve, poor fit]"
O=C(COc1cccc2c1CCNC2=O)Nc1cccc(C(F)(F)F)c1,inactive: 24.4%,
Cc1ccc(-c2noc(C3CCCN(C(=O)c4ccccc4Br)C3)n2)cc1 (stereo not given),,"inconclusive: 25.9 µM [activator, single point]"
O=C(COc1cc(F)ccc1[N+](=O)[O-])Nc1cccc(Br)c1,,"inconclusive: 13 µM [activator, partial curve, poor fit]"
COc1cccc(S(=O)(=O)NCc2ccc(C(=O)N3CCN(C)CC3)cc2)c1,inactive: 4.7%,
CCOCC(=O)Nc1nnc(C2CCCCC2)s1,,"inconclusive: 20.6 µM [activator, partial curve]"
O=C(NNc1ccc([N+](=O)[O-])cc1)Nc1ccccc1,inactive: -0.121%,
COc1ccccc1NS(=O)(=O)c1ccc2oc(N)nc2c1,inactive: 4.47%,
CCOC(=O)c1[nH]c2cc(OC)c(OC)cc2c1N,inactive: 10.7%,
Cc1ccc(Sc2ncccc2NC(=O)c2ccccc2Cl)cc1,inactive: -3.83%,
O=S(=O)(N/N=C1/CC(c2ccccc2)Oc2ccccc21)c1ccc(Br)cc1 (stereo not given),inactive: -16.3%,
O=C(COC(=O)c1ccccc1[N+](=O)[O-])c1ccc2c(c1)OCO2,,"inconclusive: 9.2 µM [activator, partial curve]"
Fc1cccc(Cl)c1CSc1nnc2ccccn12,,"inconclusive: 18.3 µM [activator, partial curve]"
Cc1ccc(C(=O)Nc2ccc3c(c2)CCC3)cc1S(=O)(=O)N1CCOCC1,,"inconclusive: 6.51 µM [activator, single point]"
